Data from patent publication US20130309252A1.
No constants are given. Whether binding was seen depends on the method and setting. Some results given as binding are weak or reduced against the parent protein; the word gives no strength.

Assays:
[1] = target: GST-PDZI′ recombinant Grasp55 protein (murine); test: HTRF, biotinylated peptide and GST fusion
[2] = target: GST-PDZI′+II′ recombinant Grasp55 protein (murine); test: HTRF, biotinylated peptide and GST fusion
[3] = target: GST-GRASP55 PDZ I+II (murine); test: ELISA, GST fusion on glutathione plate, biotinylated peptide, streptavidin-HRP

- binding [1]: binds
- binding [2]: binds
- binding [3]: binds
Binder: NYIRTSEEGDFRHKSSFVI (biotinylated (position not given)) [biotinylated peptide corresponding to the last 19 amino-acids of JAM-C]
